# According to patent US11819483B2, “Combination therapy to treat urea cycle disorders” (Baylor College of Medicine, priority 2017, dated 2023):
# Assay: Urinary excretion of phenylbutyrate, benzoate and their conjugated products; nitrogen conjugation in 24 h urine
# Details: estimated average costs phenylbutyrate USD 24.7/g, benzoate USD 0.03/g
# Experimental: This was a randomized, three-arm, crossover study. Each arm was completed over a four-day period with a washout period of at least 7 days between any two of the treatment arms (FIG. 1). […] The treatments were designed to provide isomolar amount of drugs and the total daily dose was administered in three equally divided doses.
# On day 1 of study arm 1, detailed medical history review and physical examination were performed. Complete blood count, comprehensive metabolic panel, plasma ammonia, and urinalysis (safety laboratory measurements) were performed. Urine pregnancy test was performed on all females. […]
# Plasma and urinary drugs and their conjugated products as well as urea and amino acids were determined by mass spectrometry and quantitated based on the dilution of labeled internal standards. Total urinary nitrogen was determined using the micro-Kjeldahl method.
# Plasma and urinary phenylbutyrate, PAA, and benzoate were determined as their pentafluorobenzyl derivatives by NCI-GC-MS; . […] Underivatized PAGN and HA were measured by HESI LC-MS/MS; [^2H5] […]
# Accordingly, these background values were subtracted from the values obtained during the treatment with phenylbutyrate and benzoate. The total amount of nitrogen conjugated was expressed as fraction of the test meal, by dividing by the total nitrogen content of the test meal. […]
smiles,measurement,setting,value
"O=C([O-])c1ccccc1.[Na+] [NaBz, sodium benzoate]",Conjugation efficiency,,2445.4 ^a mg of nitrogen excreted per USD
same,Conjugation efficiency,listed as benzoate,2445.4 mg of nitrogen excreted per USD

# Marks after values point to notes of the source that are not given here.
